In publication PMC7049960:

The substances below were run against T1, ATF4 bZIP TAP construct (mouse) (UniProt Q06507) (assay: co-IP; one-step pulldown with anti-FLAG magnetic beads from pooled extracts of mouse TA muscles (12 mice) expressing the ATF4 bZIP TAP construct or the empty TAP construct, SDS-PAGE and immunoblot of endogenous proteins).
T1 sequence: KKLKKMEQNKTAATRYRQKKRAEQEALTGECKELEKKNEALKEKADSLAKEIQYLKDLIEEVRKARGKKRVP

binding | Substance
binds | C/EBPα isoform p30
binds | C/EBPα isoform p42 (from UniProt P53566-1)
binds | C/EBPβ isoform LAP (liver-activating protein)
binds | C/EBPβ isoform LIP (liver-inhibitory protein)

These are yes or no findings as the source states them, for the method shown. Binding seen in cells or lysates may run through a third protein. Binding calls can cover weak binding; strength is not graded here.
